Data: patent US8119681B2, “2-[1-phenyl-5-hydroxy or methoxy-4alpha-methyl-hexahydrocyclopenta [ƒ]indazole-5-YL]ethyl phenyl derivatives as glucocorticoid receptor ligands” (Merck Sharp & Dohme Corp., priority 2006, dated 2012)
For at least one compound, name, drawing or mass did not settle the structure. Some results were stated once for a whole list of compounds, not compound by compound.

How the values were obtained:
human GR [1] = target: T1, human GR (Homo sapiens, UniProt P04150); test: Trans-Activation Modulation of Glucocorticoid Receptor (GRAMMER), MMTV-LUC reporter gene; format: cell-based; design: endogenous in cells; conditions: GRAMMER versus GITAR
T1 sequence (P04150 1-777): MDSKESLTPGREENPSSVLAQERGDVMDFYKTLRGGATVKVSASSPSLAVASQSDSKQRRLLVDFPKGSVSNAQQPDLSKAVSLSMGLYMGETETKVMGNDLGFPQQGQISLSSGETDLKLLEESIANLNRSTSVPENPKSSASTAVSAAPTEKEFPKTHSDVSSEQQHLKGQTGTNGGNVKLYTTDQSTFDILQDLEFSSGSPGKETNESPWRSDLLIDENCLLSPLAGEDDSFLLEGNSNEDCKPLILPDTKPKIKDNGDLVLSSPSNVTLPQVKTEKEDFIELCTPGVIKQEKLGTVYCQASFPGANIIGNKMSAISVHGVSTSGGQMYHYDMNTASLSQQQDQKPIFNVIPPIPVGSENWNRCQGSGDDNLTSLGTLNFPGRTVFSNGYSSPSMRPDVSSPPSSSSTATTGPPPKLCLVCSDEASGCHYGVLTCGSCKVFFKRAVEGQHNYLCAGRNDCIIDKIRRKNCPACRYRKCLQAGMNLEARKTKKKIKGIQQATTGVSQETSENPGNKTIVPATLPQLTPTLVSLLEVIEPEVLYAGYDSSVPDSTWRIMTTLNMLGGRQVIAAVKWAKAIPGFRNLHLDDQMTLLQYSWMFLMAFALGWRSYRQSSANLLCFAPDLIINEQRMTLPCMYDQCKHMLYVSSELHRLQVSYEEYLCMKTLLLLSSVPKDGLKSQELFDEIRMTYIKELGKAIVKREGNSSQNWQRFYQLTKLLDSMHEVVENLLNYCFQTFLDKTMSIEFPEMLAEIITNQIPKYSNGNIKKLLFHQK

human GR [2] = target: T1, human GR; test: Transrepression Assay (GITAR), TNFα-β-lactamase reporter gene in U937 cells; format: cell-based; design: U937 cells contain an endogenous glucocorticoid receptor (GR); endogenous in cells; host or cells: U937 cells stably transfected with the TNF-α promoter/β-lactamase reporter only; conditions: Table 1; separation of GITAR Emax over GRAMMER Emax
Source text: Transrepression Assay (GITAR)
This assay assesses the ability of test compounds to control transcription from the TNFα-β-lactamase reporter gene in U937 cells, a human myelomonocytic leukemia cell line that naturally expresses the human GR. The assay measures compound dependent-repression of the TNFa promoter linked to a reporter gene.
The human U937 cells that had been stably transfected with the TNF-α promoter driving β-lactamase are used for this assay. U937 cells contain an endogenous glucocorticoid receptor (GR). […] 50,000 cells/well are plated in 96 well black-walled plates the day of assay. Test compounds are added 10 μL/well, and cells are incubated at 37° C. for 30˜45 min. For assaying compounds, first dilute 1:10 in DMSO to make 1 mM, then further dilute 1:100 in medium to make 10× stock prior to adding to the cells. Add 50 ng/ml PMA (Sigma, cat# P8139) 10 μL/well to a final concentration 5 ng/ml, and 1 μg/ml LPS (Sigma, cat# L4130) 10 μL/well to a final concentration 100 ng/ml. Incubate cells at 370 C overnight for ˜18 hr. PMA is stored frozen as 100 μg/ml stock in DMSO. Dilute 1:10 in DMSO for a working stock of 10 μg/ml and store at −20 C. For assaying, dilute the 10 μg/ml working stock 1:200 in medium to make a 10× solution (50 ng/ml). Store frozen LPS at 1 mg/ml in PBS, dilute 1:1000 in medium to make 10× (1 μg/ml) for the assay. […]

SMILES	maximal transactivation activity compared with maximal transrepression activity (human GR [1])	GITAR > GRAMM % SEP (human GR [2]) [%]
C[C@]12Cc3cnn(-c4ccc(F)cc4)c3C=C1CC[C@@]2(O)CCc1ccccc1CNS(=O)(=O)C1CC1 [Example 5, N-(2-{2-[(4αS,5R)-1-(4-fluorophenyl)-5-hydroxy-4α-methyl-1,4,4α,5,6,7-hexahydrocyclopenta[f]indazol-5-yl]ethyl}benzyl)cyclopropanesulfonamide]	maximal transactivation activity less then maximal transrepression activity	24
C[C@]12Cc3cnn(-c4ccc(F)cc4)c3C=C1CC[C@@]2(O)CCc1ccccc1S(=O)(=O)C1CC1 [Example 144, (4αS,5R)-5-{2-[2-(cyclopropylsulfonyl)phenyl]ethyl}-1-(4-fluorophenyl)-4α-methyl-1,4,4α,5,6,7-hexahydrocyclopenta[f]indazol-5-ol]	maximal transactivation activity less then maximal transrepression activity	30
